Assay results from US10377770B2 (Novartis AG, priority 2015, dated 2019).
Structures were worked out from names or drawings and are uncertain.

Protein sequences, listed by entry. Tags and fused reporters are not part of them.
UniProt P04049, whole entry Y340E/Y341E: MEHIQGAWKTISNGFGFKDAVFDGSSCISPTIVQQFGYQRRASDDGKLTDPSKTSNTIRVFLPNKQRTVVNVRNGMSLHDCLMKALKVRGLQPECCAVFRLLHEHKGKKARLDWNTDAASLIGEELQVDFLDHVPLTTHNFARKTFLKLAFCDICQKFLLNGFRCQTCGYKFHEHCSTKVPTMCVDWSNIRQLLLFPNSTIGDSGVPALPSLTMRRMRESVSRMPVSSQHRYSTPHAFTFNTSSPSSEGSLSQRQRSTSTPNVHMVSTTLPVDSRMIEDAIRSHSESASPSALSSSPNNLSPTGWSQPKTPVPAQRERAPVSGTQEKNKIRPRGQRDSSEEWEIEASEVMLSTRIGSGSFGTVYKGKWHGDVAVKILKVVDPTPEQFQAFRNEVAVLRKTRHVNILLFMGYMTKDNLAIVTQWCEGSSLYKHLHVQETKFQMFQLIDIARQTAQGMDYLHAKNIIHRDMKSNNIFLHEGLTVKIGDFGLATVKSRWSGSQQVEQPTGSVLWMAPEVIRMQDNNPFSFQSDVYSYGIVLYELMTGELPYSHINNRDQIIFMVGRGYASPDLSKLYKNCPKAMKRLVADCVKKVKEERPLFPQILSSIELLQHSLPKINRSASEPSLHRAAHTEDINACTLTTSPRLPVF
UniProt P63104, whole entry partner: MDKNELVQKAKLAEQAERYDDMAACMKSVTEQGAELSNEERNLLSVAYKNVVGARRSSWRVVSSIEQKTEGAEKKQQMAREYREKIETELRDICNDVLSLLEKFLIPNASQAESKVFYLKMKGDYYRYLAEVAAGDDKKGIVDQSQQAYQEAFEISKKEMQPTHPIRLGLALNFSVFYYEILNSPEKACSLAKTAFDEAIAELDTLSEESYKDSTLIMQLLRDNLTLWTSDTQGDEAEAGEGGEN

Target: C-Raf FL (full length CRAF with Y340E and Y341E activating mutations, co-expressed with h14-3-3 zeta) (Homo sapiens (Human), UniProt P04049, Y340E/Y341E)
Test: In vitro Raf activity determination, AlphaScreen p-MEK readout, c-Raf (C-Raf FL)
Format: biochemical
Conditions: read-out: C-RAF IC50 μM, c-Raf approximately 4 nM, ATP 1 μM, pre-incubation 60 minutes, reaction 1 hour

Cc1ncc(NC(=O)c2ccnc(C(C)(C)C#N)c2)cc1-c1ccc2c(c1)N1CCOC[C@@H]1C[C@@H]2O (relative stereo)
IC50: 7.2 pM
